Measurements from article PMC12540732.

Chains of the proteins cited; added tags and fusions are not shown.
UniProt P54578: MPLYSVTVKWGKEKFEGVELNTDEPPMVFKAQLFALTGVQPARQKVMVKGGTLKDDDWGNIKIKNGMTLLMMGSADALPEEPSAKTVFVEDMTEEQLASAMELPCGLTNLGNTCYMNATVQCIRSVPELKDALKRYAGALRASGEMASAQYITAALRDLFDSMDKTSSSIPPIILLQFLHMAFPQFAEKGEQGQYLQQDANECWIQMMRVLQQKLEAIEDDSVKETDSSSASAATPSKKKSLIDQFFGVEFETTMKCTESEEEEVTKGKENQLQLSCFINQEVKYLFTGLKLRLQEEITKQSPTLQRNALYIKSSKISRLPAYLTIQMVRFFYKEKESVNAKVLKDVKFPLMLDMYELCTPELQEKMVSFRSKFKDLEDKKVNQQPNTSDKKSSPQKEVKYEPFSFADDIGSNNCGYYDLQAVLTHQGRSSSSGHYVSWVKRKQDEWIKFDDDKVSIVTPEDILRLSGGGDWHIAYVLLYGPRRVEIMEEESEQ
UniProt P11142: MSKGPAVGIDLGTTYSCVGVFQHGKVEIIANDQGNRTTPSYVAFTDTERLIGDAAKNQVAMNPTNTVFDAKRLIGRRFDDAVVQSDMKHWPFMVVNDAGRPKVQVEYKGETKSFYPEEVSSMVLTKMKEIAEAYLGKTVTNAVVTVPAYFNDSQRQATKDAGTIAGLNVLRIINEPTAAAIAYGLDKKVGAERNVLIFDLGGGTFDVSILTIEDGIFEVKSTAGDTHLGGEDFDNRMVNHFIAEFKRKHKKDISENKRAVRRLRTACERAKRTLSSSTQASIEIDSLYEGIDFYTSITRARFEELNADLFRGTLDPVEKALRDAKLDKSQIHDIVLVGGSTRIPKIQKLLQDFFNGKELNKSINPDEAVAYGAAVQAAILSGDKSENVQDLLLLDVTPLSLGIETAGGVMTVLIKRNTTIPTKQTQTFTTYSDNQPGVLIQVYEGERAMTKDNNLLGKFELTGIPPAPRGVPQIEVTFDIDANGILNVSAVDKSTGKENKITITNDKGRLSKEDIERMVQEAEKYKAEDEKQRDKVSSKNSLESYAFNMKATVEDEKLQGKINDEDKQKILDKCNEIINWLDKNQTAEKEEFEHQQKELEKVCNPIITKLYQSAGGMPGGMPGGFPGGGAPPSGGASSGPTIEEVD
UniProt P14902: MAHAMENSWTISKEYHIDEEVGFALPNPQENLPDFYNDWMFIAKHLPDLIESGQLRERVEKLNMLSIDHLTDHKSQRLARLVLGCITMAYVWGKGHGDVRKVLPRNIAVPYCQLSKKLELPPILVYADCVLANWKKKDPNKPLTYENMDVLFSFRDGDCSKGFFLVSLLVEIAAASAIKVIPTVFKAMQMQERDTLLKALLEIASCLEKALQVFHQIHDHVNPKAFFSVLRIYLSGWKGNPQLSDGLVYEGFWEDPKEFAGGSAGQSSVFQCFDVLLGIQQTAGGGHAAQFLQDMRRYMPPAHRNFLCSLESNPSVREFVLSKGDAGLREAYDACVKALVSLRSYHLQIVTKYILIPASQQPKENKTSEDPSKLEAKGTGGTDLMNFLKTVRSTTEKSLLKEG

Molecular target: USP14, bait of the Co-IP with mass spectrometry (UniProt P54578)
Experiment: affinity purification with mass spectrometry; Co-IP of USP14 followed by mass spectrometry; candidates intersected with the UbiBrowser 2.0 prediction; cells and antibody not told

Substance: HSC70 (from UniProt P11142 1-646)
- binding: binds

Substance: IDO1 (from UniProt P14902 1-403)
- binding: binds

No constants are given. Whether binding was seen depends on the method and setting. Binding seen in cells or lysates may run through a third protein. These calls come from enrichment with a bait or labelling near it, and not all partners need be listed.
